Reference: PubChem BioAssay AID1508588 (Peter MacCallum Cancer Centre, 2020)
Test: 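Genome-wide search for knock-downs that heighten vemurafenib action in melanoma cells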 (primary screen). Cells: human WM266.4 melanoma cells (BRAF V600 mutant). Reagent: siRNA pool against human genes, 40 nM. Duration: 96 h from transfection to read-out. Challenge: vemurafenib 300 nM (about IC25), added 48 h after transfection, for 48 h; comparison arm got DMSO vehicle only. Detection: 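Cell gain (DAPI nuclei at end minus before drug, mean of two replicates) and medium lactate by absorbance per cell, both as ratio to non-targeting siRNA, also grouped into fold-change classes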. Reading the numbers: cell gain with vemurafenib: higher = more cell gain than with non-targeting siRNA; lactate per cell with vemurafenib: higher = more lactate made per cell. Hit rule: 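a knock-down counts as enhancing when its fold-change classes with vehicle and with vemurafenib, taken together, show a stronger drug effect on cell gain or lactate per cell; exact class pairs not stated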. Calls: active = enhances vemurafenib effect; inactive = no enhancement seen.
The whole screen tested about 18,000 reagents; this is a random part of them. 790 of them (4.4%) count as active. 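Calls rest on a combination of fold-change classes in drug and vehicle arms, not all shown here.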

target | cell gain with vemurafenib | lactate per cell with vemurafenib | activity call
GASK1B (GeneID 51313) | 0.86 | 0.62 | inactive
IL17A (GeneID 3605) | 0.17 | 0.76 | inactive
BTBD7 (GeneID 55727) | 0.31 | 0.84 | inactive
ARHGAP17 (GeneID 55114) | 1.39 | 0.71 | inactive
DAPL1 (GeneID 92196) | 0.69 | 0.5 | inactive
SIRAL2 (GeneID 55007) | 0.36 | 1.11 | inactive
KLRC1 (GeneID 3821) | 0.22 | 1.05 | inactive
CTU1 (GeneID 90353) | 0.33 | 0.86 | inactive
PRAMEF16 (retired record) (GeneID 654348) | 0.4 | 1.41 | inactive
BIRC7 (GeneID 79444) | 0.97 | 0.84 | inactive
CDY1 (GeneID 9085) | 0.37 | 2.29 | inactive
DHODH (GeneID 1723) | 0.65 | 0.4 | inactive
PBK (GeneID 55872) | 0.93 | 0.82 | inactive
WWC2 (GeneID 80014) | 0.1 | 1.29 | inactive

The list goes on (3 carried over from the part before).
target | cell gain with vemurafenib | lactate per cell with vemurafenib | activity call
DHODH (GeneID 1723) | 0.65 | 0.4 | inactive
PBK (GeneID 55872) | 0.93 | 0.82 | inactive
WWC2 (GeneID 80014) | 0.1 | 1.29 | inactive
TCTN1 (GeneID 79600) | 0.95 | 0.52 | inactive
SLMAP (GeneID 7871) | 0.76 | 0.65 | inactive
TTYH2 (GeneID 94015) | 0.51 | 0.62 | active
TYROBP (GeneID 7305) | 0.86 | 0.64 | inactive
EPS15 (GeneID 2060) | 0.57 | 1.36 | inactive
COL4A4 (GeneID 1286) | 0.57 | 0.88 | inactive
GCGR (GeneID 2642) | 0.16 | 0.77 | inactive
OR4K1 (GeneID 79544) | 0.75 | 1.23 | inactive
IL1RAP (GeneID 3556) | 0.87 | 0.94 | inactive
C12orf60 (GeneID 144608) | 0.7 | 1.21 | inactive
KRTAP1-3 (GeneID 81850) | 0.72 | 1.02 | inactive
CACNG1 (GeneID 786) | 1.1 | 1.06 | inactive
NPAP1 (GeneID 23742) | 0.47 | 0.85 | inactive
UBE2L3 (GeneID 7332) | 0.42 | 0.5 | inactive
SNRNP40 (GeneID 9410) | 0.46 | 1.45 | inactive
RNF5 (GeneID 6048) | 1.08 | 0.84 | inactive
CCT6B (GeneID 10693) | 0.89 | 1.32 | inactive
H4C15 (GeneID 554313) | 0.99 | 0.75 | inactive
UBE2B (GeneID 7320) | 0.54 | 0.98 | inactive
C5orf22 (GeneID 55322) | 0.58 | 0.2 | active
